These results are taken from publication doi:10.1101/2021.06.18.448924.

No constants are given. Whether binding was seen depends on the method and setting. A result given as binding can be weak or reduced; the word gives no strength.

This assay has as its target E. faecium PoxtA(E9F6)-EQ2 with C-terminal His6-TEV-FLAG3 tag (E. faecium). The assay is described as follows: cryo-EM structure.

B1: ribosomal protein uS7 of the E. faecalis 70S ribosome (protein, UniProt Q839H0 1-156)
chain: MPRKGPVAKRDVLPDPIYNSKLVTRLINRVMVDGKRGIAANIIYNSFDIIKESTGNDPLEVFEQAMKNVMPVLEVKARRVGGSNYQVPVEVRPERRTTLGLRWVVNYARLRGEHTMEERLAKEIMDAANNTGASVKKREDTHKMADANRAFAHYRW
With B1, the binding result is reported as “binds”.

B2: ribosomal protein uL1 of the E. faecalis 70S ribosome (protein, UniProt Q830Q6 1-229)
chain: MAKKSKKMQEALKKVDATKAYSVEEAVALAKDTNIAKFDATVEVAYKLNVDPKKADQQIRGAVVLPNGTGKTQTVLVFAKGEKAKEAEAAGADFVGDDDMVAKIQGGWFDFDVVVATPDMMATVGKLGRVLGPKGLMPNPKTGTVTMDVTKAVEEVKAGKVTYRVDKAGNIHVPIGKVSFDNEKLVENFNTINDVLLKAKPSTAKGQYIKNISVTTTFGPGIHVDQASF
B2: the binding result is “binds”.
